Measured values published in paper PMC9479574.
Results are given in words; binding and its absence hold for the method and conditions named. For some of these results: Binding seen in cells or lysates may run through a third protein. Some binding calls cover weakened binding; strength is not graded here. For some of these results: Sequences can lack the tags named with a protein.

Tests used:
[1] = target: T1, SPTLC1 (endogenous) (human (endogenous in Flp-In T-REx 293)) (UniProt O15269); assay: native gel or EMSA; blue native PAGE (4%-13% gradient gel) of 20,000g membrane fractions solubilized with 4 g digitonin/g protein; immunoblotted with anti-SPTLC1, anti-SPTLC2 and anti-ORMDL antibodies
T1 sequence: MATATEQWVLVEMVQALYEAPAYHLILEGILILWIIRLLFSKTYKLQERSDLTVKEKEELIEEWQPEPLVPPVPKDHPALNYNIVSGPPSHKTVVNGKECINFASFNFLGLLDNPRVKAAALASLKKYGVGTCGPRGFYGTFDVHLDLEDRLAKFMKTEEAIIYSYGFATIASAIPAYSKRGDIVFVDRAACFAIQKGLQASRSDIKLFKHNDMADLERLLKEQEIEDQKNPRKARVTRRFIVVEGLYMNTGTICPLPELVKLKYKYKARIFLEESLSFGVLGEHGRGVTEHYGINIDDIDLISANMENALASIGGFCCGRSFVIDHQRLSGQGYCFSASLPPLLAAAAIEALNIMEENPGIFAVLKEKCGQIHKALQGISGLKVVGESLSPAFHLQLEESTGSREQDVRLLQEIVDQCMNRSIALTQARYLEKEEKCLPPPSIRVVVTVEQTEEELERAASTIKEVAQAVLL

[2] = target: T2, SPTLC1^FLAG C133W variant (HSAN1) (human) (UniProt O15269); assay: as above
T2 sequence: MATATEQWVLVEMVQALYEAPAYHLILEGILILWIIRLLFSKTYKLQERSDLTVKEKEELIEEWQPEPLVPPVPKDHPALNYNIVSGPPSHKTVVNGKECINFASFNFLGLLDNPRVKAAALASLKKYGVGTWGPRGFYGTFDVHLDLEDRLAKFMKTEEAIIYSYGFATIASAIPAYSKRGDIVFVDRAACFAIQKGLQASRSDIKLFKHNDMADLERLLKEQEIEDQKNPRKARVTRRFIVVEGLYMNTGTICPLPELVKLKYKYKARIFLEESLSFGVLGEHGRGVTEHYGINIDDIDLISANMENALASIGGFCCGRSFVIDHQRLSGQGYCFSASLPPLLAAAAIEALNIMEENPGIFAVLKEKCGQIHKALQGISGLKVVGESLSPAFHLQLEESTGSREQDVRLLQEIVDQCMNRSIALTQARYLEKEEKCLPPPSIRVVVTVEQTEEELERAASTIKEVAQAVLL

[3] = target: T3, SPTLC1^FLAG F40S41del variant (ALS) (human) (UniProt O15269); assay: as above
T3 sequence: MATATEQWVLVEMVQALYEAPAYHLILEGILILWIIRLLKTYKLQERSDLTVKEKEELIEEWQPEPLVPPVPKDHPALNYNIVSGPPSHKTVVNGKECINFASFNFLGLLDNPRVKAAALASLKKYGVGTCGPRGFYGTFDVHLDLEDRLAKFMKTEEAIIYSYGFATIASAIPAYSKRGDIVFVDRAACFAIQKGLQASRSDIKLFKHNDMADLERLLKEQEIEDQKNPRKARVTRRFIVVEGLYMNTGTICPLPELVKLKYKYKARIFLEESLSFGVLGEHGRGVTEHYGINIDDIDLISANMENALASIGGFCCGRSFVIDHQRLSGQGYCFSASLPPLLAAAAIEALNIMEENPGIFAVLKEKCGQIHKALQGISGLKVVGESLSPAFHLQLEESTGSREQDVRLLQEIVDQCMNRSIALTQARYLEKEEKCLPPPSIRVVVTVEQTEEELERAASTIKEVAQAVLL

[4] = target: T4, SPTLC1^FLAG L39del variant (ALS) (human) (UniProt O15269); assay: as above
T4 sequence: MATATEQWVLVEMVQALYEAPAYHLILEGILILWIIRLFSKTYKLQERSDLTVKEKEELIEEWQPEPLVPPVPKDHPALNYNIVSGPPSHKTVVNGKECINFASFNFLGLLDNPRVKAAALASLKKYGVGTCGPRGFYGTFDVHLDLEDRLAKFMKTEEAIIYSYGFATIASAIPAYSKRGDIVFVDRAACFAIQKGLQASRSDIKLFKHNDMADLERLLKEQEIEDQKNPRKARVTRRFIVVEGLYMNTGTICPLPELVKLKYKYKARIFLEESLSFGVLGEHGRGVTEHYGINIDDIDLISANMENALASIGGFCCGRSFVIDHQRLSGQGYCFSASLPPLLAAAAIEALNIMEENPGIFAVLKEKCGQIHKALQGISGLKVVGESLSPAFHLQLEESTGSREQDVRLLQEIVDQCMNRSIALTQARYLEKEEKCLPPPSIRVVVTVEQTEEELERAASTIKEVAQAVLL

[5] = target: T5, SPTLC1^FLAG S331F variant (HSAN1) (human) (UniProt O15269); assay: as above
T5 sequence: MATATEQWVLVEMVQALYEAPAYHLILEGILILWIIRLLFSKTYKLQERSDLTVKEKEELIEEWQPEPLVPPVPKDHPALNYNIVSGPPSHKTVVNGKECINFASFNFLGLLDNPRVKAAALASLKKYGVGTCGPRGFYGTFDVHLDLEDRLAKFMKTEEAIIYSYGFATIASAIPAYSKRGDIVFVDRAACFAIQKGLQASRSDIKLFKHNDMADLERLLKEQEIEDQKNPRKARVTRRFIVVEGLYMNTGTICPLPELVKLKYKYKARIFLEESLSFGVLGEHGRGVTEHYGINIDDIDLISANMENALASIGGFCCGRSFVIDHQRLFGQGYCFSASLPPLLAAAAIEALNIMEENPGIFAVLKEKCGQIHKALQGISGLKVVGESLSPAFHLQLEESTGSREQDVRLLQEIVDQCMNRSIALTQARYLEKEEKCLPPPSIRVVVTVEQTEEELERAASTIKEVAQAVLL

[6] = target: T6, SPTLC1^FLAG Y23F variant (ALS) (human) (UniProt O15269); assay: as above
T6 sequence: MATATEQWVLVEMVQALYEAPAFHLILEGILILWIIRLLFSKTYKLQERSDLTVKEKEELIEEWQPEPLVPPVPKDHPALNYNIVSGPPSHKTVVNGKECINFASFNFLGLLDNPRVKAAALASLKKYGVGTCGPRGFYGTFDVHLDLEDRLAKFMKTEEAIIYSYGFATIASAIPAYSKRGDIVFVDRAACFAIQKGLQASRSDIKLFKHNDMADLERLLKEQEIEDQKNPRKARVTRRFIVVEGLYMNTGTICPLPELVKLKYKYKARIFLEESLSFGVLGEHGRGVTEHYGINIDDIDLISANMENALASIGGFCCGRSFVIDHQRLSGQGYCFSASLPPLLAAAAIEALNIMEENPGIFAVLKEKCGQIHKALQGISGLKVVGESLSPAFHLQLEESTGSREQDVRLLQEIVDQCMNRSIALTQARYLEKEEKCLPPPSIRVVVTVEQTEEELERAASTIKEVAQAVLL

[7] = target: T7, WT-SPTLC1^FLAG (SPTLC1 with a C-terminal triple FLAG-tag) (human) (UniProt O15269); assay: as above
T7 sequence: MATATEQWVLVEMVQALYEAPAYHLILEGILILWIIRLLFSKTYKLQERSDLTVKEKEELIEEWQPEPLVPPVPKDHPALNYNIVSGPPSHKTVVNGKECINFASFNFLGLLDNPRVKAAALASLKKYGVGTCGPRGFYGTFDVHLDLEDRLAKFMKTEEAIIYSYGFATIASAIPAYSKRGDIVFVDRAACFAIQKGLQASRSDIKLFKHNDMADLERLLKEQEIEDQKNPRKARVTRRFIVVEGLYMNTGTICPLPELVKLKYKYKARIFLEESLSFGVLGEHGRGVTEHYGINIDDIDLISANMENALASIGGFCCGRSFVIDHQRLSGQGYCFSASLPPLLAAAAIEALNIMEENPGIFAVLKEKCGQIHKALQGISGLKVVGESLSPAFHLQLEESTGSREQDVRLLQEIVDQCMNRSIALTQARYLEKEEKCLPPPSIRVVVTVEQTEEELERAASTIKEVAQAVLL

[8] = target: T2, SPTLC1^FLAG C133W variant (HSAN1) (human); assay: co-IP; FLAG immunoprecipitation (anti-FLAG magnetic M2 beads, 3 hours) of SPTLC1^FLAG and variants from 20,000g membrane fractions solubilized with digitonin (1% wt/vol; 50 mM Tris pH 7.4, 150 mM NaCl, 20 mM MgCl2); eluates immunoblotted for SPTLC2 and ORMDLs
[9] = target: T3, SPTLC1^FLAG F40S41del variant (ALS) (human); assay: as above
[10] = target: T4, SPTLC1^FLAG L39del variant (ALS) (human); assay: as above
[11] = target: T5, SPTLC1^FLAG S331F variant (HSAN1) (human); assay: as above
[12] = target: T6, SPTLC1^FLAG Y23F variant (ALS) (human); assay: as above
[13] = target: T7, WT-SPTLC1^FLAG (SPTLC1 with a C-terminal triple FLAG-tag) (human); assay: as above

Measured: binding

B1: SPTLC2 (protein, UniProt O15270 1-562)
chain: MRPEPGGCCCRRTVRANGCVANGEVRNGYVRSSAAAAAAAAAGQIHHVTQNGGLYKRPFNEAFEETPMLVAVLTYVGYGVLTLFGYLRDFLRYWRIEKCHHATEREEQKDFVSLYQDFENFYTRNLYMRIRDNWNRPICSVPGARVDIMERQSHDYNWSFKYTGNIIKGVINMGSYNYLGFARNTGSCQEAAAKVLEEYGAGVCSTRQEIGNLDKHEELEELVARFLGVEAAMAYGMGFATNSMNIPALVGKGCLILSDELNHASLVLGARLSGATIRIFKHNNMQSLEKLLKDAIVYGQPRTRRPWKKILILVEGIYSMEGSIVRLPEVIALKKKYKAYLYLDEAHSIGALGPTGRGVVEYFGLDPEDVDVMMGTFTKSFGASGGYIGGKKELIDYLRTHSHSAVYATSLSPPVVEQIITSMKCIMGQDGTSLGKECVQQLAENTRYFRRRLKEMGFIIYGNEDSPVVPLMLYMPAKIGAFGREMLKRNIGVVVVGFPATPIIESRARFCLSAAHTKEILDTALKEIDEVGDLLQLKYSRHRLVPLLDRPFDETTYEETED
binds: all assays above
